# These are yes or no findings as the source states them, for the method shown.
# Amino acid sequences for entries named in this document (tags omitted). A change or cut given only in a name is not applied to a line headed by its entry. Chains listed by the source or under a name are the forms on record and can include a tag or linker. Residues count along the entry.
# EHBP1 bMERB domain V1183A (Q8NDI1, form named): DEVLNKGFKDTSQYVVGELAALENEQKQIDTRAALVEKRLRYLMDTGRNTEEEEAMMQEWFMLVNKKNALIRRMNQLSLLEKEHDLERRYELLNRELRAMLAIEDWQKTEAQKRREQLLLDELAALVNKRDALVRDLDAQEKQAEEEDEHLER
# UniProt P61006, residues 1-176: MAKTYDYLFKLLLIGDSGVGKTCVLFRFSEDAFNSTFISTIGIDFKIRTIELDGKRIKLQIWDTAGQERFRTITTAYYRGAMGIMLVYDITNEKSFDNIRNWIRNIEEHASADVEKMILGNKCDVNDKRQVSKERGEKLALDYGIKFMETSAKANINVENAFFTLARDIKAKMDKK
# Molecular target: EHBP1 bMERB domain V1183A (human) (UniProt Q8NDI1)
# Test: condition: 500 µM GppNHp Rab8a_(1-176) titrated to 50 µM bMERB domain; ITC; 500 µM GppNHp Rab titrated into 50 µM bMERB domain; 20 mM Hepes 7.5, 50 mM NaCl, 1 mM MgCl2, 1 mM TCEP; 25 °C; one-site-binding model; both purified
substance,measurement,value
Rab8a_(1-176) (human Rab8a G-domain) (from UniProt P61006 1-176) (domain or fragment),binding,no binding
